log2 fold change data for 21 compounds are collected here from the supplement of paper PMC10849652.

By UniProt entry, the sequences of proteins in these tests, tags left out. Where a name states a change or a piece, a line headed by the entry shows the natural chain unless it says otherwise.
UniProt Q9P2E3: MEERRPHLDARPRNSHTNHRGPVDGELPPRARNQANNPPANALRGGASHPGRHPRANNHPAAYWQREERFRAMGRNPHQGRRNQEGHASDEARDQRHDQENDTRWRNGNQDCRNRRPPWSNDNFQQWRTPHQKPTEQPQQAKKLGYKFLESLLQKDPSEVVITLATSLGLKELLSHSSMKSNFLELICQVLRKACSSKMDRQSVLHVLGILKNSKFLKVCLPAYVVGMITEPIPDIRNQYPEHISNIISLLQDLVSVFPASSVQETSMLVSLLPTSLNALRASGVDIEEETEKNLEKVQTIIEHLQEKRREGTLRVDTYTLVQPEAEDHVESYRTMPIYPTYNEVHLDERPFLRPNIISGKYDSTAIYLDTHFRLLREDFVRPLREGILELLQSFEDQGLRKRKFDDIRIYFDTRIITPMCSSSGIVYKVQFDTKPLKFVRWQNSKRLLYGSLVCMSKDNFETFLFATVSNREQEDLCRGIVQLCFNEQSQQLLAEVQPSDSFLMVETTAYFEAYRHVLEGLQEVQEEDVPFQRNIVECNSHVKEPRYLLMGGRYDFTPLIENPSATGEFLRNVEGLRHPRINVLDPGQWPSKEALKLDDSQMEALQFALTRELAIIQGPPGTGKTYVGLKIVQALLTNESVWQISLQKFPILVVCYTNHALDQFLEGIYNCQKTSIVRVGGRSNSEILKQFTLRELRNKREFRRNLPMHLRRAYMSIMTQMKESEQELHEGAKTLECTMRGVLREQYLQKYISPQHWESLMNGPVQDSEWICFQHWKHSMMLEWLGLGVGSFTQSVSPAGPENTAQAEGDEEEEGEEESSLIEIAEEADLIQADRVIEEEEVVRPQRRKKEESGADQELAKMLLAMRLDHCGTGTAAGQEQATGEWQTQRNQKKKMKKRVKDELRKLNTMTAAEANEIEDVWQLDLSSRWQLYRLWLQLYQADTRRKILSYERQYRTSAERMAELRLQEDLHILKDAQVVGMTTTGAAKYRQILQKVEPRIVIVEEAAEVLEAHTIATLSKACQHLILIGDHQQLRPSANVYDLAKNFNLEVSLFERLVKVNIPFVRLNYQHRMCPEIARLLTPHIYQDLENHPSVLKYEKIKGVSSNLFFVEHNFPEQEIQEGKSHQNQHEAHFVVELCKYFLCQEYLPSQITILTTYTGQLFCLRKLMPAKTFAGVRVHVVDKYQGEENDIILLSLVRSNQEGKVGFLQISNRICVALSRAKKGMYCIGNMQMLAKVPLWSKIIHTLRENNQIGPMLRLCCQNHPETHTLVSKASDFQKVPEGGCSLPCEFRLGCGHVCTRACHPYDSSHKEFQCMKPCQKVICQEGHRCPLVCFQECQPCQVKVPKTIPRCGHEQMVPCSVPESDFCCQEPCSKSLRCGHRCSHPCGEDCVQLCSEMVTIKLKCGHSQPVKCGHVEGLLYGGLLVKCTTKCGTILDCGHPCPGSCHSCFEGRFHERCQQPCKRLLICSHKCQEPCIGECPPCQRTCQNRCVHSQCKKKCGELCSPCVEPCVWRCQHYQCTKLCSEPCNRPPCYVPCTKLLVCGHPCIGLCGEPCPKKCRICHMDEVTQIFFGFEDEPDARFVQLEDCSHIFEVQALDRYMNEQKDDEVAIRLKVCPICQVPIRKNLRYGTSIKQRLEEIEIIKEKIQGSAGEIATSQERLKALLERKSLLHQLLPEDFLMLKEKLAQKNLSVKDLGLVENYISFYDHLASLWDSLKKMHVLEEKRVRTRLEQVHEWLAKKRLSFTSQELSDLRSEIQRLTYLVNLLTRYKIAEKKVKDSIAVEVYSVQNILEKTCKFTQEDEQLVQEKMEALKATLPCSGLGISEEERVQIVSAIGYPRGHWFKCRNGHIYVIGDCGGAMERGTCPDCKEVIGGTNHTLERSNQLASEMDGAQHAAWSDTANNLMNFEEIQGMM
UniProt O43257, whole entry, looked up: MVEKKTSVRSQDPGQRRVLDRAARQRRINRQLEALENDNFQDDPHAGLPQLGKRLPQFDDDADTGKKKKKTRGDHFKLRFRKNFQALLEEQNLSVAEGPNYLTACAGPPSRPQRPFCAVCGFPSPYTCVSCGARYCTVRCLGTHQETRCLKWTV

The list shows a part of the results.

The target of the first test is ZNFX1 (UniProt Q9P2E3). In words: log2 fold change, soluble protein after heating vs DMSO (PISA); higher = thermal stabilisation; K562 cells, 10 uM, 30 min; active = over 0.2 and 3.5 SD of the protein, either way, in both replicates (recomputed). The essentials:
(§1)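 K562 cells at 2×10^6 cells/mL were exposed to 10 μM compound for 30 min, then aliquots were heated for 3 min across 48°C-58°C, pooled, and extracted in PBS containing 0.5% NP-40 at 4°C. The supernatant after 21,000xg for 90 min was taken as soluble protein and measured by TMTpro 16plex LC-MS/MS with channel sums equalised. Thermal stability is reported relative to control samples, with values from duplicates. Fold changes are given on a log2 scale.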
`O=C1NC(=O)C(c2cnc3ccccn23)=C1c1cn2c3c(cc(F)cc13)CN(C(=O)N1CCCCC1)CC2`: the log2 fold change was inactive: 0.418. In the case of `CC(C)(O)CC(=O)NCCn1ccc2ncnc(Nc3ccc(Oc4cccc(C(F)(F)F)c4)c(Cl)c3)c21`, the log2 fold change was inactive: 0.282.

With `CC[C@H](C)[C@H](NC(=O)[C@H]([C@@H](C)CC)N(C)C(C)=O)C(=O)N[C@H](C(=O)N[C@@H](CC(C)C)C(=O)[C@@]1(C)CO1)[C@@H](C)O` [epoxomicin], the log2 fold change was inactive: -0.099. As for `Fc1ccc(Cl)cc1-c1nc(Nc2ccncc2)c2nccnc2n1`, the log2 fold change is inactive: -0.259. For the compound `CCCCN(Cc1ccc(C(=O)NO)cc1)C(=O)Nc1ccccc1` [Nexturastat A], the log2 fold change was inactive: 0.213. Still for that read-out and setting: then `C[C@@H]1COCCN1c1cc(C2(S(C)(=O)=O)CC2)nc(-c2cccc3[nH]ccc23)n1`, with inactive: 0.578.

The next test deals with ZNHIT1 (UniProt O43257). The description is as above. In a few lines: as §1
For the compound `Cc1cc(SCc2sc(-c3ccc(C(F)(F)F)cc3)nc2C)ccc1OCC(=O)O`, the log2 fold change is inactive: -0.029.

Take `O=C1NC(=O)C(c2cnc3ccccn23)=C1c1cn2c3c(cc(F)cc13)CN(C(=O)N1CCCCC1)CC2`: the log2 fold change is inactive: 0.037. `CC[C@H](C)n1cc(C)c2c(C(=O)NCc3c(C)cc(C)[nH]c3=O)cc(-c3ccc(N4CCNCC4)nc3)cc21`: the log2 fold change was inactive: -0.058.

Take `CC(C)(O)CC(=O)NCCn1ccc2ncnc(Nc3ccc(Oc4cccc(C(F)(F)F)c4)c(Cl)c3)c21`: the log2 fold change was inactive: 0.025. The same measure, in the same setting: next, `C[C@H](Nc1ncnc2nc[nH]c12)c1cc2cccc(Cl)c2c(=O)n1-c1ccccc1` [duvelisib]: inactive: -0.022. For `CC[C@H](C)[C@H](NC(=O)[C@H]([C@@H](C)CC)N(C)C(C)=O)C(=O)N[C@H](C(=O)N[C@@H](CC(C)C)C(=O)[C@@]1(C)CO1)[C@@H](C)O` [epoxomicin], the log2 fold change is inactive: 0.098. In the case of `Fc1ccc(Cl)cc1-c1nc(Nc2ccncc2)c2nccnc2n1`, the log2 fold change is inactive: 0.015. In the case of `CC1=C(C(=O)Nc2cc3cn[nH]c3cc2F)C(c2ccc(C(F)(F)F)cc2)CC(=O)N1` (configuration not stated), the log2 fold change was inactive: 0.064. Regarding `Cc1nc(Nc2n[nH]c3c2CN(C(=O)N[C@H](CN(C)C)c2ccccc2)C3(C)C)c2sccc2n1`, the log2 fold change is inactive: 0.044. For the compound `CNC(=O)c1ccccc1Nc1nc(Nc2ccc(N3CCOCC3)cc2OC)ncc1Cl`, the log2 fold change is inactive: -0.311.

Consider `CCCCN(Cc1ccc(C(=O)NO)cc1)C(=O)Nc1ccccc1` [Nexturastat A], for which the log2 fold change is inactive: 0.134. Regarding `Cc1nc(Nc2ncc(C(=O)Nc3c(C)cccc3Cl)s2)cc(N2CCN(CCO)CC2)n1` [dasatinib], the log2 fold change was inactive: -0.062. As for `CN1CCN(CCOc2cc(OC3CCOCC3)c3c(Nc4c(Cl)ccc5c4OCO5)ncnc3c2)CC1` [saracatinib], the log2 fold change is inactive: -0.053.

For the compound `C[C@@H]1COCCN1c1cc(C2(S(C)(=O)=O)CC2)nc(-c2cccc3[nH]ccc23)n1`, the log2 fold change was inactive: -0.084.

Regarding `Cc1cn(-c2cc(NC(=O)c3ccc(C)c(Nc4nccc(-c5cccnc5)n4)c3)cc(C(F)(F)F)c2)cn1` [nilotinib], the log2 fold change is inactive: -0.072.

With `CNc1nc(-c2ccc3c(N)n[nH]c3c2)cc(N2C[C@@H](C(=O)NC3CCCCC3)CC[C@H]2C)n1`, the log2 fold change is inactive: 0.073. Still for that read-out and setting: then `Cc1ncc(-c2ccnc(Nc3ccc(S(C)(=O)=O)cc3)n2)n1C(C)C`, with inactive: -0.061; and `Cn1c2cc(S(C)=O)sc2c2cnn(Cc3cccc(N)c3)c(=O)c21` (configuration not stated), with inactive: 0.152; and `COc1cc2ncnc(Nc3ccc(F)c(Cl)c3)c2cc1OCCCN1CCOCC1` [gefitinib], with inactive: -0.026. The same measure, in the same setting: then `CC(C)c1cnn2c(NCc3ccccc3)cc(NCCCCCCN)nc12`, with inactive: -0.123; and `NC(=O)c1ccc2nc(-c3ccc(Oc4ccc(Cl)cc4)cc3)[nH]c2c1`, with inactive: 0.13.
